Common to all, as to type: cell-based
In one assay the test system is HCT116 (colon). Put plainly: In vitro cytotoxic activity (MTT) assay, HCT116. The settings on record: Homo sapiens, HCT-116; HCT116 (colon) cells, exposed for 96 hours; read-out: IC50, concentration eliciting 50% inhibition of cell proliferation. The procedure:
(§1) Compounds 1-15 were screened for their in vitro cytotoxic activity utilizing a 3-(4,5-dimethyl-thiazol-2-yl)-2,5-diphenyltetrazolium bromide (MTT) assay against selected cancer human cell lines consisting of PC3 (prostate), HCT116 (colon), A375 (melanoma), H1299 (lung), MIAPaCa-2 (pancreas), HL60 (leukemia), MCF7 (breast), MDA-MB-231 (breast) (T. Mosmann, J. Immunol. Meth., 1983, 65, 55-63). The cells were cultured at 37° C. in RMPI1640 medium supplemented with 10% fetal bovine serum, 50 IU/mL penicillin, and 50 μg/mL streptomycin in a 5% CO2 incubator. All cells were sub-cultured 3 times/week by trypsinisation. Viable cells were seeded and allowed to adhere for 12 h before a test drug was added in 96-well plates at an initial density of 1.0×10^5 cells/mL. Tumor cell lines were separately exposed to various concentrations of the tested compounds followed by incubation at a temperature of 37° C. during 96 hours inside a medium of fresh RMPI 1640. Cells were subsequently incubated at 37° C. using MTT at 0.5 mg/mL during 4 hours. After removal of supernatant, formazan crystals were dissolved in isopropanol and the optical density was measured at 570 nm. CX-4945 was used as a positive control.

In a further assay the test system is MIAPaCa-2 (pancreas). Briefly: In vitro cytotoxic activity (MTT) assay, MIAPaCa-2. The conditions noted are these: Homo sapiens, MIA PaCa-2; MIAPaCa-2 (pancreas) cells, exposed for 96 hours; read-out: IC50, concentration eliciting 50% inhibition of cell proliferation. The procedure:
as §1

The subject of the next assay is H1299 (lung). Put plainly: In vitro cytotoxic activity (MTT) assay, H1299. The conditions noted are these: Homo sapiens, NCI-H1299; H1299 (lung) cells, exposed for 96 hours; read-out: IC50, concentration eliciting 50% inhibition of cell proliferation. The procedure: as §1
The subject of a further assay is MCF7 (breast). Put plainly: In vitro cytotoxic activity (MTT) assay, MCF7. The settings on record: Homo sapiens; MCF7 (breast) cells, exposed for 96 hours; read-out: IC50, concentration eliciting 50% inhibition of cell proliferation. The procedure: as §1
For a further assay, the system named is PC3 (prostate). Put plainly: In vitro cytotoxic activity (MTT) assay, PC3. The settings on record: Homo sapiens, Prostate cell; PC3 (prostate) cells, exposed for 96 hours; read-out: IC50, concentration eliciting 50% inhibition of cell proliferation. The procedure:
as §1

In a further assay the test system is MDA-MB-231 (breast). Briefly: In vitro cytotoxic activity (MTT) assay, MDA-MB-231. The conditions noted are these: Homo sapiens; MDA-MB-231 (breast) cells, exposed for 96 hours; read-out: IC50, concentration eliciting 50% inhibition of cell proliferation. The procedure: as §1
In another assay the test system is A375 (melanoma). Put plainly: In vitro cytotoxic activity (MTT) assay, A375. The settings on record: Homo sapiens, A-375; A375 (melanoma) cells, exposed for 96 hours; read-out: IC50, concentration eliciting 50% inhibition of cell proliferation. The procedure:
as §1

The next assay deals with HL60 (leukemia). Put plainly: In vitro cytotoxic activity (MTT) assay, HL60. The settings on record: Homo sapiens, HL-60; HL60 (leukemia) cells, exposed for 96 hours; read-out: IC50, concentration eliciting 50% inhibition of cell proliferation. The procedure:
as §1

Regarding `O=C(O)c1ccc2c(c1)nc(Nc1cccc(Cl)c1)c1ccncc12` [CX-4945, reference compound], the IC50 in the assay on HCT116 (colon) was 2300 nM; in the assay on MIAPaCa-2 (pancreas) it was 1000 nM; in the assay with H1299 (lung) it was 2300 nM; in the assay on MCF7 (breast), 9100 nM; in the assay on PC3 (prostate), 2000 nM; in the assay with MDA-MB-231 (breast), 6200 nM. The IC50 in the assay with A375 (melanoma) stood at 4100 nM; with HL60 (leukemia), 3700 nM.

For the origin of these results see patent US11964976B1, “Substituted pyrido[3′,4′:4,5]pyrrolo[3,2-c][1,6]naphthyridines as CK2 inhibitors” (KING FAISAL UNIVERSITY, priority 2023, dated 2024).
